Measured data: PubChem BioAssay AID504791 (Drosophila RNAi Screening Center, 2011)

Assay: 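Genes whose knock-down strengthens or weakens small-RNA reporter silencing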 (primary screen)
Cells: Drosophila S2-derived reporter cells
Knock-down reagent: long dsRNA against Drosophila genes, about 150-250 ng dsRNA per well (siRNA assay); about 80-120 ng (miRNA assay)
Time to read-out: about 5 days (siRNA assay); about 4 days (miRNA assay)
Treatment: copper sulfate induction of reporters: 25 µM (siRNA assay); 200 mM stated (miRNA assay), 1-2 days before reading
Read-out: 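Dual luciferase assay: Renilla to firefly signal ratio in each well, scaled to the mean ratio of its plate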
Hit rule: 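a well was a first-pass pick when its plate-scaled ratio rose above 1.5 (siRNA assay) or 1.6 (miRNA assay), or dropped below 0.6; a gene counted only if two separate dsRNAs agreed on retest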
The screen tested about 23,000 reagents; below is an unselected part of those that have a named target and a result. Over the whole deposit, 199 (0.86%) are marked active. 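Plate-scaled ratios behind the calls are not deposited; printed light signals are raw; many rows marked increased or decreased are still called inactive.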 Reagent sequences are not shown. The record does not give: the direction of the score.

| Gene | DRSC id | stable siRNA reporter change | stable assay Renilla, run 1 (luminescence) | stable assay firefly, run 1 (luminescence) | Call |
| --- | --- | --- | --- | --- | --- |
| CG30283 | DRSC04071 | – | 7918 | 4.50e5 | inactive |
| AspRS | DRSC05914 | – | 7662 | 3.61e5 | inactive |
| CG3448 | DRSC10368 | – | 6450 | 3.58e5 | inactive |
| CG8927 | DRSC16458 | – | 7882 | 3.71e5 | inactive |
| CG33493 | DRSC10642 | – | 5496 | 3.16e5 | inactive |
| mnb | DRSC20058 | – | 4599 | 3.40e5 | inactive |
| mnb | DRSC20353 | – | 6079 | 4.18e5 | inactive |
| mnb | DRSC23347 | – | 4076 | 2.77e5 | inactive |
| CG6178 | DRSC15984 | – | 9551 | 2.93e5 | inactive |
| CG17380 | DRSC15230 | – | 6938 | 3.44e5 | inactive |
| CG17807 | DRSC04296 | – | 50374 | 1.11e6 | inactive |
| Prp3 | DRSC10912 | – | 8579 | 3.50e5 | inactive |
| CG4477 | DRSC10425 | – | 7807 | 5.98e5 | inactive |
| CG14207 | DRSC19562 | reporter ratio lowered past the hit cutoff | 7299 | 7.25e5 | inactive |
| CG14207 | DRSC19563 | – | 6439 | 4.18e5 | inactive |
| CG2931 | DRSC12324 | – | 9387 | 4.70e5 | inactive |
| CG7110 | DRSC03011 | – | 5522 | 1.19e6 | inactive |
| CG7110 | DRSC03012 | – | 7834 | 4.01e5 | inactive |
| CG31751 | DRSC02464 | – | 6599 | 5.21e5 | inactive |
| CG31751 | DRSC02465 | – | 6726 | 5.14e5 | inactive |
| ninaD | DRSC02886 | – | 7662 | 4.62e5 | inactive |
| Rgk3 | DRSC04250 | – | 7811 | 6.38e5 | inactive |
| Rgk3 | DRSC04251 | – | 6759 | 3.76e5 | inactive |
| Rgk3 | DRSC04254 | – | 6199 | 3.57e5 | inactive |
| Rgk3 | DRSC04255 | – | 7111 | 3.75e5 | inactive |
| Ype | DRSC20301 | – | 7811 | 4.84e5 | inactive |
| beat-Ib | DRSC03490 | – | 8106 | 3.87e5 | inactive |
| PIG-X | DRSC22721 | – | 4607 | 4.35e5 | inactive |
| ETH | DRSC04612 | – | 6979 | 3.35e5 | inactive |
| CG15375 | DRSC18045 | – | 5786 | 4.04e5 | inactive |
| tef | DRSC07301 | – | 9922 | 3.80e5 | inactive |
| tef | DRSC22041 | – | 8711 | 5.75e5 | inactive |
| sala | DRSC03605 | – | 6508 | 3.45e5 | inactive |
| CG9030 | DRSC20139 | – | 5079 | 3.70e5 | inactive |
